Measurements from PMC9134899.
No constants are given. Whether binding was seen depends on the method and setting. In cells and extracts the contact can be indirect. Some entries that bind do so weakly or less than the wild type.

Chains of the proteins cited; added tags and fusions are not shown. Residues count along the entry.
UniProt Q12778: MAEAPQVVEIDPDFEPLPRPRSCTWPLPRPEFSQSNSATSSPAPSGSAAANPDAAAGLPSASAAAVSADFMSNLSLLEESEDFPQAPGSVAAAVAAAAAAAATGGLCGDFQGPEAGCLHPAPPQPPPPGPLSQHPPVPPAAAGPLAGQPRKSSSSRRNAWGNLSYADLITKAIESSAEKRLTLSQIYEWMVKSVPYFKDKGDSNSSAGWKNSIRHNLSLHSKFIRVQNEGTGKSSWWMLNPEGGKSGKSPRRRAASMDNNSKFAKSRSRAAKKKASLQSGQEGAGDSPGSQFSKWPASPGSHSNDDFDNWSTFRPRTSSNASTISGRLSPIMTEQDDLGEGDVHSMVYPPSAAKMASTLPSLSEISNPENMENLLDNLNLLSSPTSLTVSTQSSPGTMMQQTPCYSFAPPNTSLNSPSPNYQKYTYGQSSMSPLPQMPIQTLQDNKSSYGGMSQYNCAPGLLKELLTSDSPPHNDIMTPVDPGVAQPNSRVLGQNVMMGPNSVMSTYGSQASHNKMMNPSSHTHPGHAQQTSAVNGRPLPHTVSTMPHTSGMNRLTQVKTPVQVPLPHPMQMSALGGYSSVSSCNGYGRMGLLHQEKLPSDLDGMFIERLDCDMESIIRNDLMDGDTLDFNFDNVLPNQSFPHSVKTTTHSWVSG
UniProt P05231, residues 30-212: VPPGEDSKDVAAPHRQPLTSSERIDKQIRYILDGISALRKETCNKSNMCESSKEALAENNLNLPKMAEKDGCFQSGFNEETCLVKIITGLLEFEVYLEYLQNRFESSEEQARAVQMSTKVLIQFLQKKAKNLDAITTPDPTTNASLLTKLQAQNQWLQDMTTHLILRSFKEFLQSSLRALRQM

T1: SCAF11 (human (endogenous in SUM159PT)) (UniProt Q99590)
T1 sequence: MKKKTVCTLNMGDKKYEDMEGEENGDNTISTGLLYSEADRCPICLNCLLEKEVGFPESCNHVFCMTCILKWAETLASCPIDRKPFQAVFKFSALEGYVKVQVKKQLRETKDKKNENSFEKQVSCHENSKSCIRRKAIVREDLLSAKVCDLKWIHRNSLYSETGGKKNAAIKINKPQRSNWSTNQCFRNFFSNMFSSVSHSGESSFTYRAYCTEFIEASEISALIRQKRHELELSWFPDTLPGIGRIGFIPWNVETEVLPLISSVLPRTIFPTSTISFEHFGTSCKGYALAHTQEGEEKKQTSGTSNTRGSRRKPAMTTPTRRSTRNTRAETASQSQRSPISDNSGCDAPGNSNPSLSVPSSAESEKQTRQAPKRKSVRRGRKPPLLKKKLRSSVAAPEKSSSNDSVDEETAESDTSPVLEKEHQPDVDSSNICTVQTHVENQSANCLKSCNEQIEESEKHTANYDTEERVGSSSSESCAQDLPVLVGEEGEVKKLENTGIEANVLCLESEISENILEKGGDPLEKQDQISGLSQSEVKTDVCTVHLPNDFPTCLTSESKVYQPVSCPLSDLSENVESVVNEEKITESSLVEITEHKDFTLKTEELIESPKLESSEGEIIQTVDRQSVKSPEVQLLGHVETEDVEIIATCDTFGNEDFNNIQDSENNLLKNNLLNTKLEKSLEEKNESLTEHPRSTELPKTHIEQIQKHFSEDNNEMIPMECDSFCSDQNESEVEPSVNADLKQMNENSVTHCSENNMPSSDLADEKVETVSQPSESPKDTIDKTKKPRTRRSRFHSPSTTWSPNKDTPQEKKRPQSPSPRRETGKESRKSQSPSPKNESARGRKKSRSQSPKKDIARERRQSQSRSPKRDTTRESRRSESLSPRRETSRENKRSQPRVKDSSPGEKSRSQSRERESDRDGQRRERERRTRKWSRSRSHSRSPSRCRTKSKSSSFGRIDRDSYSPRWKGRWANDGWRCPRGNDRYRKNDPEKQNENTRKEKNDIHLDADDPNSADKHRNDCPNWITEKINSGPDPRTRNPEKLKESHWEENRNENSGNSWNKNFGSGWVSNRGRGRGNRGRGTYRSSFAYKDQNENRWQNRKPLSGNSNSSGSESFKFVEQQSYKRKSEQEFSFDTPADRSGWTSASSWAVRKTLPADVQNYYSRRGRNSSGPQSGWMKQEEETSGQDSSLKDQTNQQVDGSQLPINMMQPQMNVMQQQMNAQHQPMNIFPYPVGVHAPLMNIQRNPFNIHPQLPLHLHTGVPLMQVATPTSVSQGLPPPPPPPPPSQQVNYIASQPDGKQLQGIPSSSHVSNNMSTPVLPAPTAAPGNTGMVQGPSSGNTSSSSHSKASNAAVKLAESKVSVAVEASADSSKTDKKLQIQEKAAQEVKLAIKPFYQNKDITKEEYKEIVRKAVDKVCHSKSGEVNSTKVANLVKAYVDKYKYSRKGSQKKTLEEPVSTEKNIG

B1: AQP3 (protein, UniProt Q92482 1-292)
chain: MGRQKELVSRCGEMLHIRYRLLRQALAECLGTLILVMFGCGSVAQVVLSRGTHGGFLTINLAFGFAVTLGILIAGQVSGAHLNPAVTFAMCFLAREPWIKLPIYTLAQTLGAFLGAGIVFGLYYDAIWHFADNQLFVSGPNGTAGIFATYPSGHLDMINGFFDQFIGTASLIVCVLAIVDPYNNPVPRGLEAFTVGLVVLVIGTSMGFNSGYAVNPARDFGPRLFTALAGWGSAVFTTGQHWWWVPIVSPLLGSIAGVFVYQLMIGCHLEQPPPSNEEENVKLAHVKHKEQI

Tests used:
[1] = biological target: FOXO1 (human (endogenous in SUM159PT)) (UniProt Q12778); test: co-IP; SUM159PT cells; nuclear extracts lysed in RIPA buffer, 1 mg protein with antibody 2 h at 4 °C, protein A-agarose beads overnight at 4 °C, Western blot; without and with CAP (PAM, 5 min CAP, 24 h), siRNA against SCAF11 or RPS6KA3; which protein was precipitated is not told
[2] = biological target: T1, SCAF11 (human (endogenous in SUM159PT)); test: as above

Row | Molecule | binding [1] | binding [2]
1 | IL6 (from UniProt P05231 30-212) | binds | 
2 | B1 |  | binds
